Laboratory results from ChEMBL document CHEMBL4311974, “Synthesis of coumarin-sulfonamide derivatives and determination of their cytotoxicity, carbonic anhydrase inhibitory and molecular docking studies” (Eur J Med Chem, 2019).

Tested on: HT-29
Assay: cells
Format: functional, cell-based
Details: Homo sapiens, HT-29, 24 h

Q: With CC(=O)Nc1nnc(S(N)(=O)=O)s1 [ACETAZOLAMIDE] as the molecule, how does the IC50 read?
A: Its IC50 is 53.8 µM.
